# From PubChem BioAssay AID595 (National Center for Advancing Translational Sciences (NCATS), 2007)
# Among all 71,000 compounds or so, about 310 (0.44%) were called active. The shares of active, inactive and inconclusive entries below differ from those in the screen. Calls come from the whole dose curve; as a rule, active = well fitted curve in either direction with a large enough effect; inconclusive = small, poorly fitted or top-dose-only effect, or another doubt; inactive = flat fitted curve, though single readings scatter. A potency beside an inconclusive call is a rough fit, not a confirmed value.
# Test system: Hsp90 C-terminal peptide / TPR2A (Hop) interaction, human
# Assay: qHTS Assay for Disrupters of an Hsp90 Co-Chaperone Interaction
# Details: AlphaScreen TPR2A-His6 binding biotin-Hsp90 C-terminal peptide; activity change, negative = inhibition: at 57 µM (top of the series) unless noted
# % is set by controls: 0 for no effect and ±100 for the full control effect; potency is the fitted concentration of half-maximal effect.
Structure (SMILES),"activity change, negative = inhibition",Potency
O=C(NCCc1c[nH]c2ccccc12)C(F)(F)C(F)F,inconclusive: 22%,
CCOc1cc(-c2c(C)c(C)nc(N)c2C#N)ccc1O,inactive: -5.5%,
COc1ccccc1Nc1nc(N)nc(CN2CCN(c3ccccc3F)CC2)n1,,"inconclusive: 31.6 µM [inhibitor, single point]"
CCOc1ccc(NC(=O)CSc2nnc(Cn3c(=O)sc4ccccc43)n2C)cc1,inconclusive: 34.1% [at 2.3 µM],
CCN(c1ccccc1)c1nc2ccsc2c(=O)s1,,"inconclusive: 25.1 µM [activator, single point]"
CCc1ccc(C2=Nn3c(nnc3-c3cccs3)SC2)cc1,inactive: -5.82%,
Cn1c(SCC(=O)c2ccc3c(c2)OCO3)nnc1C1COc2ccccc2O1 (stereo not given),inconclusive: 46.5%,
COc1ccc2nc(N3CCCC3)c(C#N)cc2c1,,active: 25.1 µM [activator]
Cc1nc2cnc(Oc3cccc(Cl)c3)nc2n(C2CC2)c1=O,inactive: -1.71%,
c1ccc(-c2noc(-c3ccco3)n2)nc1,,"inconclusive: 39.8 µM [inhibitor, single point]"
COc1cccc(C(=O)Nc2ccc3nc(N4CCN(c5ncccn5)CC4)cc(C)c3c2)c1OC,inconclusive: 68.5%,
O=C1CC(=O)N(Cc2ccco2)C(=O)N1,inactive: -3.38%,
COC(=O)c1ccc(NC(=O)CSc2nnc(CNc3ccc(F)cc3)n2C)cc1,inconclusive: 46.7%,
NC(=S)NNC(N)=S,inactive: -2.1%,
Cc1cc(-c2ccc(N=Nc3cc(S(=O)(=O)O)c4ccccc4c3N)c(C)c2)ccc1N=Nc1cc(S(=O)(=O)O)c2ccccc2c1N,,active: 1.26 µM
N#Cc1nc(-c2ccc(OCc3ccccc3)cc2)oc1NCCN1CCOCC1,inconclusive: 30.9%,
CCCn1nc(-c2ccccc2)c2nc3ccccc3nc21,,"inconclusive: 12.6 µM [activator, partial curve]"
O=C(c1cccc(F)c1)N1CCC2(CC1)CN(c1ccc(-c3ccccc3)cc1)C2,inactive: -2.52%,
CCN(Cc1ccccc1)S(=O)(=O)c1ccc(S(=O)(=O)N2CCN(C)CC2)cc1,inconclusive: 86.7%,
Cc1occc1C(=O)Nc1nn[nH]n1,,"inconclusive: 39.8 µM [inhibitor, single point]"
CN(C)/C=N/c1cnc(C(=O)c2ccc(Cl)cc2)n1C,inactive: -6.59%,
Oc1ccc(O)c2c(O)cccc12,inactive: -23.2%,

Structure (SMILES),"activity change, negative = inhibition",Potency
Nc1nonc1-c1nc2ccccc2n1CC(=O)N1CCCCC1,inactive: -1.8%,
COc1ccc(N2CCN(C(=O)C3CCC(Cn4c(=S)[nH]c5ccccc5c4=O)CC3)CC2)cc1 (stereo not given),,"inconclusive: 15.8 µM [inhibitor, partial curve]"
CCCOc1ccc(C(=O)C(c2ccccc2)N2CCOCC2)cc1 (stereo not given),inactive: -1.91%,
Cc1ccc(-c2c3c(=O)n(C)c(=O)n(C)c3cn2-n2cnnc2)cc1,,"inconclusive: 39.8 µM [inhibitor, single point]"
N#Cc1nc(-c2ccco2)oc1N1CCc2ccccc2C1,,"inconclusive: 25.1 µM [inhibitor, partial curve]"
CCOC(=O)c1c(NC(=O)CSc2nnc(-c3ccc(OC)cc3)o2)sc2c1CCC2,inactive: 1.86%,
Cc1cc(C)nc(Nc2ccc(N3CCOCC3)cc2)n1,inconclusive: -2.73%,
Cc1ccccc1NC(=O)NCCCN1CCN(C2CCCCC2)CC1,inactive: -2.8%,
CCOC(=O)c1[nH]c(C)c(/C(O)=C2\C(=O)C(=O)N(CCCN3CCOCC3)C2c2cccnc2)c1C (stereo not given),inconclusive: 44.6%,
CCCN(CCC)C(=O)CSc1nc2n[nH]c(C)c2c(=N)n1-c1ccc(OCC)cc1,inconclusive: 33.3%,
O=S(=O)(Cc1ccccc1)N1CCCC(c2nc(-c3ccc(F)cc3)no2)C1 (stereo not given),,"inconclusive: 31.6 µM [activator, single point]"
[O-][n+]1onc2c1CCc1nnc(-c3ccccc3)cc1-2,inconclusive: 47.8%,
O=C(O)C1C2C=CC(C2)C1C(=O)NCCCn1ccnc1 (stereo not given),,"inconclusive: 25.1 µM [inhibitor, partial curve]"
O=C(c1ccncc1)N1CCC[C@@]2(CCN(C(c3ccccc3)c3ccccc3)C2)C1,inactive: -3.78%,
CS(=O)(=O)N(CCc1ccccc1)CC(=O)N1CCCCC1,inconclusive: 46.1%,
COc1ccccc1CNc1ccnc(-c2ccc(N(C)C)cc2)n1,,"inconclusive: 20 µM [inhibitor, single point]"
COc1cccc(-c2nc(NC3CC3)c3ccccc3n2)c1,,"inconclusive: 39.8 µM [activator, single point]"
CN(c1ccccc1C(=O)Nc1cccnc1)S(C)(=O)=O,inconclusive: 44.6%,
Cc1cc(C)n(-c2ncc(-c3ccccc3)nn2)n1,,"inconclusive: 31.6 µM [inhibitor, single point]"
O=C(NCCc1ccccc1)C1CCCN(S(=O)(=O)c2cccc3nonc23)C1 (stereo not given),inactive: -5.74%,
N#Cc1cc2c(nc1SCC(O)CS(=O)(=O)Cc1ccccc1)CCCC2 (stereo not given),inconclusive: 35.1%,
Cc1cc2nc3c(c(=O)n2[nH]1)CCCC3,inconclusive: 50.8%,

Structure (SMILES),"activity change, negative = inhibition",Potency
Cn1c(Cc2csc(N)n2)nnc1SC/C=C/c1ccccc1,,"inconclusive: 31.6 µM [inhibitor, single point]"
COc1ccccc1C[C@@H](Cc1nc2ccccc2[nH]1)c1nc2ccccc2[nH]1,inactive: 0.652%,
C=CCn1c(COc2cccc3ccc(C)nc23)nnc1SCC(=O)OC,inconclusive: 43.6%,
COc1ccc(CCN(Cc2nc3ccccc3c(=O)[nH]2)C(=O)c2ccco2)cc1OC,inconclusive: 51.5%,
Cc1nc(SCC#N)c2c(C)c(C)sc2n1,inactive: -2.04%,
CC(=O)NC(CCS(C)(=O)=O)C(=O)N1CCc2ccccc21 (stereo not given),inconclusive: 41.7%,
Cc1cc(/C=N/n2cnnc2)c(C)n1-c1ccc2ncccc2c1,inconclusive: 10.2% [at 11 µM],
Cc1csc(SCC(=O)NC(=O)NCc2ccccc2)n1,inconclusive: 42.4%,
CN(C)C(=O)c1ccc(-c2nc(NC3CCNCC3)c3ccccc3n2)cc1,inactive: 2.38%,
O=C(Cc1nn[nH]n1)NCc1ccccc1Cl,,"inconclusive: 39.8 µM [inhibitor, single point]"
CCn1cnc2c1c(=O)n(Cc1csc(-c3ccccc3)n1)c(=O)n2Cc1ccccc1,inactive: -0.792%,
CCOc1ccc(NS(=O)(=O)c2ccc3[nH]cc(C(=O)NC(C)CC)c(=O)c3c2)cc1 (stereo not given),inactive: -4.3%,
O=C(NC1(C(=O)NC2CCCCC2)CCCCC1)c1ccc2c(c1)OCO2,inconclusive: 49.9%,
CC1(C)Cc2c(C#N)c(N3CCCC3)nc(-c3ccco3)c2CO1,,active: 25.1 µM [activator]
CCOC(=O)CSc1nc2c(c(=O)n1-c1ccc(OC)cc1)SCC2,inactive: 1.93%,
Cc1ccc(N2C(=O)c3n[nH]c(C)c3C2c2ccco2)cc1 (stereo not given),inactive: -1.59%,
O=c1[nH]n(-c2ccccn2)c(=O)c2ccccc12,,"inconclusive: 25.1 µM [inhibitor, partial curve]"
CC1(C)CC(=O)c2cc(C(=O)Nn3cnnc3)c(=O)n(-c3ccccc3)c2C1,,"inconclusive: 25.1 µM [inhibitor, partial curve]"
COc1ccc(C2N(c3cccc(Cl)c3)C(=O)C3CCCN32)cc1 (stereo not given),inconclusive: 54.2%,
COc1ccc2c(Cc3c4ccccc4cc4ccccc34)cncc2c1O,inactive: -9.9% [at 11 µM],
O=C(O)CN(Cc1ccccc1)S(=O)(=O)c1ccc(F)cc1,inactive: 0.858%,
NC(=O)CC1NC(=O)c2ccccc21 (stereo not given),inconclusive: 48.2%,

Structure (SMILES),"activity change, negative = inhibition",Potency
Cc1ccc2c(CC(=O)O)coc2c1C,inconclusive: 48.5%,
O=C(c1cnccn1)N1CCC2(CCN(Cc3nccs3)CC2)CC1,inactive: -0.662%,
COc1ccc(NS(=O)(=O)c2c(C)[nH]c(=O)[nH]c2=O)c(OC)c1,inconclusive: 47.4%,
COc1ccccc1Cc1nc(-c2ccc(C)cc2)no1,,"inconclusive: 31.6 µM [activator, single point]"
CC(C(=O)NCc1ccco1)n1nc(-c2ccccc2)c2cc(Cl)ccc21 (stereo not given),inconclusive: 45.1%,
O=C(O)CCCCCN=C1CCc2ccccc2N1,inconclusive: 47.5%,
O=C(c1ccc(Cn2cc(Br)cn2)o1)n1cccn1,inconclusive: 46.9%,
Cc1cccc2cc(C#N)c(SCC(=O)N3CCC(C)CC3)nc12,inactive: -0.736%,
O=C(CCc1ccccc1)NC1CCSC1=O (stereo not given),inconclusive: 52% [at 11 µM],
Cn1cc(-c2nc3cnc(Oc4ccccc4)nc3n(CCC#N)c2=O)c2ccccc21,,"inconclusive: 3.16 µM [activator, single point]"
Cc1csc(=Nc2ccc(S(=O)(=O)N3CCOCC3)cc2)n1Cc1ccco1,,"inconclusive: 25.1 µM [inhibitor, partial curve]"
CCCCN1CSC(=S)N(Cc2ccccc2)C1,inactive: -2.28% [at 11 µM],
O=[N+]([O-])c1ccc([C@@H](Nc2ccccc2)c2ccc3cccnc3c2O)cc1,inactive: -20.6% [at 11 µM],
Cc1ccc(OCc2nc(C#N)c(N3CCCC3)o2)cc1,,"inconclusive: 25.1 µM [inhibitor, partial curve]"
Cc1cc(C)c2c(-n3cccc3)c(C(=O)O)sc2n1,inconclusive: 43.9%,
CCOC(=O)c1ccccc1NC(=O)CSc1nnc(Cc2cccn2C)n1-c1ccc(C)cc1,,"inconclusive: 39.8 µM [inhibitor, single point]"
C/C=C/C=[N+](\[O-])C(C)/C(=N/O)c1ccc(F)cc1 (stereo not given),inconclusive: 38.6%,
Cc1cc(C)n2nc(C(=O)Nc3ccc4c(c3)OCO4)nc2n1,inactive: -6.67%,
COc1ccc(Cl)cc1NC(=O)N1CCN(S(C)(=O)=O)CC1,inconclusive: 30.9%,

# Arranged by formula weight (low to high): part of the list above.
Structure (SMILES),"activity change, negative = inhibition",Potency
Cc1ccc(OCc2nc(C#N)c(N3CCCC3)o2)cc1,,"inconclusive: 25.1 µM [inhibitor, partial curve]"
Cc1cc(C)n2nc(C(=O)Nc3ccc4c(c3)OCO4)nc2n1,inactive: -6.67%,
CC(C(=O)NCc1ccco1)n1nc(-c2ccccc2)c2cc(Cl)ccc21 (stereo not given),inconclusive: 45.1%,
